We go through 7 sequences from paper PMC5744401.

The target of series [1] is His6-AvaR1 (Streptomyces avermitilis) (UniProt Q82H41). The experiment in a line: EMSA. The settings on record: EMSA: 0.3 nM DIG-labeled probe, pH and temperature as in Zhu et al. 2016 (not given), recombinant protein, protein details: His6, label: 3' DIG, probe letters rebuilt from the primers and the genome. (In general: Mobility shift assays separate free from complexed probe on a gel.)

Series [2] shares this target. The experiment in a line: DNase I footprinting. The following applies: recombinant protein; protein details: His6; label: 5' FAM; probe letters rebuilt from the primers and the genome.
The target in series [3] is T1, His6-AvaR2 (Streptomyces avermitilis) (UniProt Q82H44).
T1 sequence: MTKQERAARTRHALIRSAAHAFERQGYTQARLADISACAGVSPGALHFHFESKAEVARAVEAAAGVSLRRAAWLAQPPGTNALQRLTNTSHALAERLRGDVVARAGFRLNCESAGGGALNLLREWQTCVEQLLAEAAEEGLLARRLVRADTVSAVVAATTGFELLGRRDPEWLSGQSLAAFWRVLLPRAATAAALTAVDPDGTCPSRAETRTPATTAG
The experiment in a line: EMSA. The following applies: 50, 200 nM protein; EMSA: 0.3 nM DIG-labeled probe; pH and temperature as in Zhu et al. 2016 (not given); recombinant protein; protein details: His6; label: 3' DIG; probe letters rebuilt from the primers and the genome.

The exact form of at least one protein or probe is not confirmed. For some assays here: A negative result means that nothing was seen under these conditions.

As to “TCATGCGTCCAGCCTAGGCCTCCCGGTGGTCGGCCGAATCGCCTCGGGAGGGGGGAGGCGTTGCCGCCGGGCGGGTGGGGGCTGCCCGTGGCGGGGGCTCGCCGGCCGCCTCGCGGCCTGTTTCCCACCGCCCTGCCGGTTTCCCACCGCCCTGCCCGTCCCGTGCCTCTGTCTCGCGCCTGCCCGTCCGGCGGGCGGCGTTCCAGGTCGCCTACGCGGCCCGAACGCCCCTCTCCGCCACCCTGTG (double strand) [folP2p]”, the binding result in series [1] (50, 200 nM protein) is reported as “binds”.

With “CGCCTGTGTGTAGCCCTGCCGTTCGAAGGCGTGGGCGGCGGAGCGGATGAGGGCGTGGCGGGTGCGGGCGGCGCGTTCCTGTTTCGTCACCGGTGACTCCTCGCGGAAGGCGGCTGACCAGAGGGCCCTGCAAGAAACCAGCATAGCGGTTTGTTTGTGGCGCCCGTCACCACTTCGCCGACGCGGTACCCCCGGAGGCCAGGCACCGGTCACTGCCGCCGCCCGCGCTGCCCGCTGCCGCCGCCGAGCCGTACCGCGCGGCTCGGGCGTCGCGCATGCCGTCAGGCCCCCGGCACCTCCCTGAACCGGCCCGCGATATGCAGATCCGCCTCGATCCGCGAGGCCGTCGCGAGCAGTTCCGGCAGGACCTCCTCGACACATTCCTCGGGCGTA (double strand) [avaR2 footprint probe]”, in series [2], the binding result is recorded as “binds”. Regarding “TGCACATCAAGAAGGGCGATCCGATCCTGGTCTCCTTCGCCGCCGCCGCGGCGGACCCCGAGCCGTACGGGGCGGACGCGGCCGTCTTCGACGTACTGCGGCCCGGCCGCCGCGACGACCTGGCCTTCGGATACGGGGTGCACCGCTGCCTGGGCGCTCCGCTGGCACGCCTGGAGGCGACCACCGCGCTGTCGGCGCTCTTCACGCGCTTCCCGGACCTGACGTCCGTTCAGCCGACGGAAGAGCTCGAGCCCGTACGGTCCTTCATCGTCAACGGGTACGGCTCCCTGCCGGTCGTCCTGCGGCCGCACTGATGCGCGAGAAAACCGCACAAGCGGTTTGTTAAAGTTGCTGGACCCCCATCAGCAACGGAGCGCCCGATGGTCAAGCAGGTCAGACAGGAACGCGCGATCCGCACGCGCAACGCCTTGATCGAGTCC (double strand) [avaR3 footprint probe]”, the binding result in series [2] is “binds”. For “TTCAAGAACTTCCGACGGTTCAACGGCATGTCTCGTACTCCTCGGGAAAGGCCAATGACGCGCGTAGATTCTGGCCCACCAGCCACACCCCCGAACAGCCCCCGCAGGTTGCGATCTGATGACCAGTAGCCACCCCACCGCACCCCCCAGTGACAGAGTGGGACGTATGACCCCCACCGCGGAGGAACCCCGCCCCACAGGCCCCTACGGCACCCCCGAAGCCCCCCGCATCGCCGTCCGCGGCGAAGCCCACCTCGAAGTCGACCCCGAGATCGCCCGCATAGGCATCACCGTCAGC (double strand) [cpdBp]”, the binding result is “binds” in series [1] (50, 200 nM protein) and “no binding” in series [3]. Take “ATGGTCGGGAACCTCCGCAATCCGGGCCGGGCGGCCCAGCTGTCGTGGCGATCTACTCCAGGAAACGTAGACCTTTTTCTGCCACTTGTCCGAGCTATGCAGACACCCCGATCCCCTAAGAAATGAACACCCTTGGGAACGGCACAGCCCAGGGGTGGATAGGGGTATTCGCCGCCGCCGCGCCGTCATTAGCTTTGAAGAGTTGAAGACGTTCAAGACATTGATGCCCGGCCGTCAGCGGATTTCTCGCGCTCCTTTCATTCTTCGACGCTGCATTGCAGCTCTCATCATGTCCGCACGGCCGCCGAGCATTGCCTAGCGGTGAGGACACAG (double strand) [aveA1p]”: the binding result in series [1] (10-100 nM protein) is “no binding”.

With “GAGTGCGAGATGTTGTTGCCGAAGCCCGGCCCCTTGCCGCAGACGTCGCAGTTGGCAGCCACGGGTCACTCCAAAGACTTCAGATGCACTTACGGTTGATCCCGGCATGCCGGAATCGAGATCGGAGGATCTGAGTGGCGGTGCCAGGGGGAAGGCCCGATCAGATCGGGCAACCGGAGCAGCATACAACGACT (double strand) [rpmBp]”, in series [1] (50, 200 nM protein), the binding result was “binds”. Still for that read-out and setting: the same measure for “CCTTGTGGGAGCCGTAGTAGGCGGTGAGACCGCTCACGTCGATTCGCTTGGCCATGTGAATCACTGCTTCTTTCGAGAATTCGGGTCGCTGATTGGCCGCGTCAGCGGCCCGCCACGCGGCAGAGCCGCTCATCGAGTCCGTGGGGCCTTCCAGCGCGCGATGCCGCGCGCCGCCAGGTTGAGGATCATGACGAAGGCGATGAGG (double strand) [pstBp]”: “no binding”.
